Laboratory results published in publication PMC7615741.
Results are given in words; binding and its absence hold for the method and conditions named. Some entries that bind do so weakly or less than the wild type. Sequences can lack the tags named with a protein.

T1: AtEH1-GFP (35S:AtEH1-GFP) (A. thaliana) (UniProt Q9LM78)
T1 sequence: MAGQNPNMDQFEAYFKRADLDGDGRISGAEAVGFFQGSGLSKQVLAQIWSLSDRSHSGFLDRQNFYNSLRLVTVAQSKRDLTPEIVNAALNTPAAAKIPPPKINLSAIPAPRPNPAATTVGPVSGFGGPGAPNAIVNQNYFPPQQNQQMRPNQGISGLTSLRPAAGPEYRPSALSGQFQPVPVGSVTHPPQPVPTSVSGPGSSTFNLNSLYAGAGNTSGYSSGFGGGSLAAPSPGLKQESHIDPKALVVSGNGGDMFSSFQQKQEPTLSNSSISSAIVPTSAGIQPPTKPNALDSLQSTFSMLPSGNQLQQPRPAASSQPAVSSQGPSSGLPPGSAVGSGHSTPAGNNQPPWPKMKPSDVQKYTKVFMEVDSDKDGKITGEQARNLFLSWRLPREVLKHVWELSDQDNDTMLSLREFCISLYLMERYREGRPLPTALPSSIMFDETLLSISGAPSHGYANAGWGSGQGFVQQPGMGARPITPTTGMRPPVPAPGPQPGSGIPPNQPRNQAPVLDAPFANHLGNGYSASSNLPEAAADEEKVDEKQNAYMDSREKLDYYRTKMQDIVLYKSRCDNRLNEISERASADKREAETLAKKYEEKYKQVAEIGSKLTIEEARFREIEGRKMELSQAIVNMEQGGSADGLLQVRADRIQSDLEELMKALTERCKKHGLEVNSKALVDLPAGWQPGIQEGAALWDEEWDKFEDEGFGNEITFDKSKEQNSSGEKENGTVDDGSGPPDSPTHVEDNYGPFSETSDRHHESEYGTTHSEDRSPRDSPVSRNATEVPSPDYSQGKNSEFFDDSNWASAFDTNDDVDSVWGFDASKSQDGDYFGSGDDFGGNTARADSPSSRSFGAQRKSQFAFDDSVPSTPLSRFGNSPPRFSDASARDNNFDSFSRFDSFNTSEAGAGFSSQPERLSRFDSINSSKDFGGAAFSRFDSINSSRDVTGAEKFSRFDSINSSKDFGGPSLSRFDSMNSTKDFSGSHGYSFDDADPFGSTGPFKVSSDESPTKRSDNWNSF

T2: GFP-AtEH1 (recombinant, full length) (A. thaliana) (UniProt Q9LM78)
T2 sequence: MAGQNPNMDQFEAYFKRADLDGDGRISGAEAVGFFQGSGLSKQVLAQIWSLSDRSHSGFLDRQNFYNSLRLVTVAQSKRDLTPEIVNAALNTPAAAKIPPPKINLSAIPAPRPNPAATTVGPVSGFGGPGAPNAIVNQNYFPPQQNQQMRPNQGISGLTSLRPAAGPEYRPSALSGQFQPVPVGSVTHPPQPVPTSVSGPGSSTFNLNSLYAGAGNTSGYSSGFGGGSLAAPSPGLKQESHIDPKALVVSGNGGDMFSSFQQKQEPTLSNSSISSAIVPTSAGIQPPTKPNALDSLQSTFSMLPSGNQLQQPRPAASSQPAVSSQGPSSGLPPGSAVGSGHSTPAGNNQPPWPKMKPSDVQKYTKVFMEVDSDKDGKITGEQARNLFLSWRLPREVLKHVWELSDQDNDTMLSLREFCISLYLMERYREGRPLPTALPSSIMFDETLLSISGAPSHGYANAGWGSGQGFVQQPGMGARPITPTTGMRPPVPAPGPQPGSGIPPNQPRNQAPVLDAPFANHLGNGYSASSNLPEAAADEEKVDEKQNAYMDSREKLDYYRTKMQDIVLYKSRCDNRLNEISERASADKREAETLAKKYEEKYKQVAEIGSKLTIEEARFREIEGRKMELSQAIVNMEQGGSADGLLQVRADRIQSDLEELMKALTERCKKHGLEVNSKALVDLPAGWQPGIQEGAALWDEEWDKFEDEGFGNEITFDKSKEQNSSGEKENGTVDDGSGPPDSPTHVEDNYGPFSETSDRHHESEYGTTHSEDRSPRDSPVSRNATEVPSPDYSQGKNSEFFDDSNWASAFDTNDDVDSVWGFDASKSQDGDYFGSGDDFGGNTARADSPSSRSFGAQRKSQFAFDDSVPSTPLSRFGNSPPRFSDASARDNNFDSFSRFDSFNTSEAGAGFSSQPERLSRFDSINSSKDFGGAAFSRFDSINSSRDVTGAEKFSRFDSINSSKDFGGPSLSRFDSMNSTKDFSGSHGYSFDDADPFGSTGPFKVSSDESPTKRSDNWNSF


Assays:
[1] = molecular target: T1, AtEH1-GFP (35S:AtEH1-GFP) (A. thaliana); experiment: partitioning into condensates (Airyscan microscopy); CLC-mKo and 35S:AtEH1-GFP in A. thaliana hypocotyl cells; plot profiles of fluorescence
[2] = molecular target: T2, GFP-AtEH1 (recombinant, full length) (A. thaliana); experiment: in vitro partitioning assay (confocal microscopy of droplets); 5 µM EH1(FL)-GFP after MBP cleaved and 5 µM mCherry-TOL6 mixed in 40 mM Tris-HCl pH7.4, 100 mM NaCl, on ice for 30 min; droplets observed in a 384-well plate; both purified

binding [1] | binding [2] | Binder
binds | – | clathrin light chain 2 (CLC-mKo) (protein, UniProt O04209 1-258) MSAFEDDSFVILNDDASESVPVSGSFDATDSFSAFDGSLQVEDSVDDVFAAPSSDYGAYSNGDGIFGSNGDHDGPILPPPSEMESDEGFALREWRRQNAIQLEEKEKREKELLKQIIEEADQYKEEFHKKIEVTCENNKAANREKEKLYLENQEKFYAESSKNYWKAIAELVPKEVPTIEKRRGKKEQQDPKKPTVSVIQGPKPGKPTDLTRMRQILVKLKHNPPSHLKLTSQPPSEEAAAPPKNVPETKPTEAVTAA
– | binds | TOL9-mCherry (recombinant) (protein, UniProt Q8L860 1-675) MVNAMVERATSEMLIGPDWAMNLEICDMLNSDPAQAKDVVKGIKKRIGSRNPKAQLLALTLLETIVKNCGDMVHMHVAEKGVIHEMVRIVKKKPDFHVKEKILVLIDTWQEAFGGPRARYPQYYAGYQELLRAGAVFPQRSERSAPVFTPPQTQPLTSYPPNLRNAGPGNDVPEPSAEPEFPTLSLSEIQNAKGIMDVLAEMLSALEPGNKEDLKQEVMVDLVEQCRTYKQRVVHLVNSTSDESLLCQGLALNDDLQRVLTNYEAIASGLPGTSSQIEKPKSETGKSLVDVDGPLIDTGDSSNQANGATSSSGNGVLNQLALPAPPVTNGSANSKIDLLSGDDLALVPVGPPQPASPVASDQNALALIDMFSDNTNNPSPATAPSGNPAQNIPLNPQGHQQPNSQAGEAGLQQSNGFAPQVGYSQFEQPSYGQGVSSPWSSQPAQQPVQPSYGAQDSTAFPPPPWEAQLQDYSPSAESGSPFSPGMHPTQTAFTHAQPVNNNNPYPQIPQTGPPVNNNSPYAQMPQTGQAVANISPYPQIPQNGVYMPNQPNQALGSGYQPQQQQQQQMMMAQYYAQQQQLQQQQQQQAYGNQMGGYGYGYNQQQQGSSPYLDQQMYGLSMRDQTSHQVASSSSTTSYLPPMKPKNKPEDKLFGDLVDISKFKPTKPTSGRAGTM
